For one substance, binding results are on record in article PMC9765618.

Protein sequences, listed by entry. Tags and fused reporters are not part of them. Lines headed by an entry give the natural chain unless they say otherwise; changes in a name come on top. Chains listed by the source or under a name are the forms on record and can include a tag or linker.
Flag-tagged human Sp100A (P23497, form named): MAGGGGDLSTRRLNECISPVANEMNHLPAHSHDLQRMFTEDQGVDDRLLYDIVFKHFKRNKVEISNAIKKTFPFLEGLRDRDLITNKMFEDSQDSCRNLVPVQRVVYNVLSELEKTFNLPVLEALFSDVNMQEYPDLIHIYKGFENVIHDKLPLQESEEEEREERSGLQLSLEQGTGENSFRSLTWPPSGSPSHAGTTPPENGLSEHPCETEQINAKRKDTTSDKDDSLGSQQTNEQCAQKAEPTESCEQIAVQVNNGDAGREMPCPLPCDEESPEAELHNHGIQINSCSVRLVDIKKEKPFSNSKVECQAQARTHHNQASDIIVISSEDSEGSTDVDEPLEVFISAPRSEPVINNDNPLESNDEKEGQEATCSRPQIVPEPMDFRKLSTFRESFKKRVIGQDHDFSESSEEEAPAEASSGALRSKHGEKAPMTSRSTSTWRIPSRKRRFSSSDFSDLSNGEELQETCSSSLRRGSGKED
UniProt P14618: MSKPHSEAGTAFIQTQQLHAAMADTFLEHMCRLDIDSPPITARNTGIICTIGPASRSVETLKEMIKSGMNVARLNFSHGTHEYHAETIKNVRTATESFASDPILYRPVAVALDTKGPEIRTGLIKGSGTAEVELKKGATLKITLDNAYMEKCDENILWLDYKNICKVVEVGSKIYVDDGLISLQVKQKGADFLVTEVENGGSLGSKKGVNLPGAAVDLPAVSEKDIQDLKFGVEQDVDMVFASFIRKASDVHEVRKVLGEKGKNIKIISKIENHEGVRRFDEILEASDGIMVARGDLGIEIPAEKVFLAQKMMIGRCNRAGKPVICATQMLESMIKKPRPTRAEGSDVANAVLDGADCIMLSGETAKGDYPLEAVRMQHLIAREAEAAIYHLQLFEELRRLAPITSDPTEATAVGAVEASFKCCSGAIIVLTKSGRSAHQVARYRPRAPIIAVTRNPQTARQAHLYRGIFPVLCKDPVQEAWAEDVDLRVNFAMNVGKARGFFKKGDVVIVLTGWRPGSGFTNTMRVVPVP

For this test, the target named is Flag-tagged human Sp100A (human) (UniProt P23497). The test is described as follows: co-IP; Flag-Sp100A and HA-PKM2 cotransfected into HEp-2 cells; nuclear and cytosolic proteins immunoprecipitated with anti-Flag antibody, blotted with anti-HA and anti-Flag.

No constants are given. Whether binding was seen depends on the method and setting. Binding seen in cells or lysates may run through a third protein. Some binding calls cover weakened binding; strength is not graded here.

“HA-tagged human PKM2 (from UniProt P14618 1-531) (enzyme)”: the binding entry is given as “binds”.
